{"source": "PubChem BioAssay AID662", "about": "(National Center for Advancing Translational Sciences (NCATS), 2007)", "note": "The list shows a part of the results. The main result of the screen is listed elsewhere. These columns were measured beside it and carry no call. Most of these compounds were active or inconclusive in the main read-out, so they are no random draw. The note in brackets gives the kind of curve behind each potency; many fits are weak."}
{"experiment": "Cell signaling CRE-BLA (Fsk stim)", "details": "CHO CRE-bla reporter (cAMP response element driving beta-lactamase), forskolin EC10, beta-lactamase ratio; measured here: 460 nm blue channel", "outline": "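Cells were plated overnight at 37 °C, exposed to compound titrations plus EC10 NKH 477 for 3 h, then given CCF4 dye for 2 h at room temperature. Blue/green (460/530 nm) ratio was converted to %Activity and AC50 values calculated.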"}
{"molecule": "CCC(=NCC1CCCO1)c1c(O)n(Cc2ccccc2)c(=O)[nH]c1=O", "note": "(configuration not stated)", "AC50": "15.8 µM [rising, partial curve]"}
{"molecule": "Cc1nc2ccccc2n1C1CCN(Cc2nnnn2CCc2ccccc2)CC1", "AC50": "10 µM [rising, partial curve]"}
{"molecule": "COc1ccc(CC2c3cc(OC)c(OC)cc3CCN2C)cc1OC", "note": "(configuration not stated)", "AC50": "25.1 µM [rising, single point]"}
{"molecule": "CC(C)CCOC(=O)c1c(N)n(CC2CCCO2)c2nc3ccccc3nc12", "note": "(configuration not stated)", "AC50": "15.8 µM [rising, single point]"}
{"molecule": "CCC/C=C(\\CCC)C(NP(=O)(c1ccccc1)c1ccccc1)c1ccccc1", "note": "(configuration not stated)", "AC50": "25.1 µM [falling, single point]"}
{"molecule": "COc1ccc(CCn2c(O)c(C=NC3CC3)c(=O)[nH]c2=O)cc1OC", "AC50": "10 µM [rising, single point]"}
{"molecule": "CCC12CN3CCN(CC(C3)/C1=N\\O)C2", "AC50": "0.0631 µM [rising, full curve]"}
{"molecule": "CCOC(=O)c1c(N)n(CCCOC(=O)c2ccco2)c2nc3ccccc3nc12", "AC50": "12.6 µM [rising, partial curve]"}
{"molecule": "CCn1c(=O)cc(SCC(=O)N2CCC3(CC2)OCCO3)c2ccccc21", "AC50": "10 µM [rising, partial curve, poor fit]"}
{"molecule": "Cc1ccc(Cn2nnnc2CN2CCC(n3nnc4cc(C)ccc43)CC2)cc1", "AC50": "10 µM [rising, single point]"}
{"molecule": "CCC(=O)OC1(c2cccc(C)c2)CC(C)N(C)CC1C", "note": "(configuration not stated)", "AC50": "0.1 µM [falling, partial curve, poor fit]"}
{"molecule": "COC(=O)/C=C\\C(=O)N[C@@H]1CC[C@@]2(O)[C@H]3Cc4ccc(O)c5c4[C@@]2(CCN3CC2CC2)[C@@H]1O5", "AC50": "20 µM [falling, partial curve, poor fit]"}
{"molecule": "Nc1ccncc1", "AC50": "25.1 µM [falling, partial curve, poor fit]"}
{"molecule": "Cc1ccc(CS(=O)(=O)Cc2ccc(C(=O)N3CCC4(CC3)OCCO4)o2)cc1", "AC50": "0.00316 µM [falling, partial curve, poor fit]"}
{"molecule": "CCCCn1c(O)c(C=NCCCn2ccnc2)c(=O)[nH]c1=O", "AC50": "10 µM [falling, partial curve]"}
{"molecule": "NS(=O)(=O)c1ccc(N=Cc2c(O)n(C3CCCCC3)c(=O)n(C3CCCCC3)c2=O)cc1", "AC50": "10 µM [falling, single point]"}
{"molecule": "Cl.Cl.Cl.Cl.Cl.Cl.N.N.N.N.NNNNN.NNNNN.O.O.[Ru].[Ru].[Ru]", "AC50": "31.6 µM [falling, single point]"}
{"molecule": "COC1=C(C)C(=O)c2c(c(COC(N)=O)c3n2C[C@@H]2[C@@H]3N2C)C1=O", "note": "(some centres not stated)", "AC50": "0.1 µM [rising, full curve]"}
{"molecule": "N[C@H](C(=O)O)c1cc(=O)[nH]o1", "AC50": "31.6 µM [falling, single point]"}
{"molecule": "Cn1c(O)c(C(=NCCN2CCCCC2)c2ccccc2Cl)c(=O)n(C)c1=O", "AC50": "6.31 µM [rising, partial curve]"}
{"molecule": "Cc1[nH]c2ccc(O)cc2c1CCN", "AC50": "25.1 µM [falling, single point]"}
{"molecule": "CC(C)CCNC(=O)c1c(N)n(CC2CCCO2)c2nc3ccccc3nc12", "note": "(configuration not stated)", "AC50": "2.51 µM [falling, full curve]"}
{"molecule": "Clc1ccc2c(N3CCNCC3)ccnc2c1", "AC50": "5.01 µM [falling, full curve]"}
{"molecule": "O=C(O)CCCc1ccc(N(CCCl)CCCl)cc1", "AC50": "25.1 µM [rising, partial curve]"}
{"molecule": "CN1C(=O)CCS(=O)(=O)[C@H]1c1ccc(Cl)cc1", "AC50": "15.8 µM [falling, single point]"}
{"molecule": "Cn1c(O)c(/C=N/c2ccccn2)c(=O)n(C)c1=O", "AC50": "0.398 µM [falling, partial curve]"}
{"molecule": "ClC1=C(Cl)C2(Cl)C3C(Cl)C=CC3C1(Cl)C2(Cl)Cl", "note": "(configuration not stated)", "AC50": "3.98 µM [rising, partial curve]"}
{"molecule": "CN1CCC(c2c[nH]c3ccc(O)cc23)CC1", "AC50": "20 µM [falling, partial curve, poor fit]"}
{"molecule": "CC(C)CC(NC(=O)C1CCCCC1)C(=O)N1CCC2(CC1)OCCO2", "note": "(configuration not stated)", "AC50": "2 µM [falling, partial curve]"}
{"molecule": "O=C(Cc1ccccc1)N1CCN(Cc2c[nH]c3ccccc23)CC1", "AC50": "0.794 µM [falling, partial curve, poor fit]"}
{"molecule": "C=CC(=O)OCCO", "AC50": "20 µM [falling, partial curve, poor fit]"}
{"molecule": "O=P(O)(O)Cc1ccccc1OP(=O)(c1ccccc1)c1ccccc1", "AC50": "25.1 µM [rising, single point]"}
{"molecule": "Oc1cc(Cl)c(Cl)c(Cl)c1Cl", "AC50": "25.1 µM [falling, partial curve]"}
{"molecule": "Cn1c(O)c(C=NCCOc2ccc(Cl)cc2)c(=O)n(C)c1=O", "AC50": "10 µM [rising, partial curve]"}
{"molecule": "Nc1ccc([N+](=O)[O-])cc1N", "AC50": "20 µM [falling, partial curve, poor fit]"}
{"molecule": "CCOC(=O)C(O)(c1ccc(NC(=O)c2ccco2)c(OC)c1)C(F)(F)F", "note": "(configuration not stated)", "AC50": "12.6 µM [rising, partial curve]"}
{"molecule": "c1cncc(CNC2=NCCC2)c1", "AC50": "3.98 µM [falling, partial curve]"}
{"molecule": "Cc1[nH]c2ccccc2c1/C=N/O", "AC50": "6.31 µM [falling, partial curve]"}
{"molecule": "CCC(=NCc1ccc(F)cc1)c1c(O)n(C)c(=O)n(C)c1=O", "AC50": "10 µM [rising, single point]"}
{"molecule": "CP(C)(=O)CCC(=O)O", "AC50": "0.00316 µM [falling, full curve, poor fit]"}
{"molecule": "CC(C)C[C@H]1C(=O)N2CCC[C@@H]2[C@@]2(O)O[C@](NC(=O)[C@@H]3C=C4c5cccc6[nH]cc(c56)C[C@@H]4N(C)C3)(C(C)C)C(=O)N12", "AC50": "3.98 µM [rising, partial curve]"}
{"molecule": "C[C@]1(C(=O)O)[C@@H]2CC[C@@H](O2)[C@@]1(C)C(=O)O", "AC50": "0.398 µM [rising, full curve, poor fit]"}
{"molecule": "c1ccc2c(CCNC3=NCCC3)c[nH]c2c1", "AC50": "3.98 µM [falling, partial curve, poor fit]"}
{"molecule": "CN1CCN(C(=O)O[C@@H]2c3nccnc3C(=O)N2c2ccc(Cl)cn2)CC1", "AC50": "10 µM [rising, partial curve, poor fit]"}
{"molecule": "CCOC(=O)N1CCN(C(C)C(=O)c2c[nH]c3ccccc23)CC1", "note": "(configuration not stated)", "AC50": "6.31 µM [rising, partial curve, poor fit]"}
{"molecule": "CC[C@@]1(O)C(=O)OCc2c1cc1n(c2=O)Cc2cc3ccccc3nc2-1", "AC50": "0.0794 µM [rising, full curve, poor fit]"}
{"molecule": "CC(C)c1ccc(O)c(CN2CCN(c3ccccc3)CC2)c1", "AC50": "25.1 µM [rising, single point]"}
{"molecule": "N[C@@H](Cc1c[nH]c2ccccc12)c1nnc(SCc2ccccc2)o1", "AC50": "3.16 µM [falling, single point]"}
{"molecule": "C/C=C1\\C[C@H](C)[C@](O)(CO)C(=O)OCC2=CCN3CC[C@@H](OC1=O)[C@@H]23", "AC50": "12.6 µM [falling, partial curve, poor fit]"}
{"molecule": "CC[C@@H]1CN2CCc3cc(OC)c(OC)cc3[C@H]2C[C@@H]1C[C@@H]1NCCc2cc(O)c(OC)cc21", "AC50": "1.26 µM [falling, full curve]"}
{"molecule": "Cc1c(C(=O)c2cccc3ccccc23)c2cccc3c2n1[C@H](CN1CCOCC1)CO3", "AC50": "12.6 µM [falling, single point]"}
{"molecule": "C1=C(c2c[nH]c3ccccc23)CCNC1", "AC50": "0.01 µM [falling, full curve]"}
{"molecule": "COc1ccc(OC)c(C2=NOC(C(=O)N3CCC4(CC3)OCCO4)C2)c1", "note": "(configuration not stated)", "AC50": "0.1 µM [falling, full curve, poor fit]"}
{"molecule": "CCCC/C(C)=C/[C@@H](NP(=O)(c1ccccc1)c1ccccc1)c1ccccc1", "AC50": "25.1 µM [falling, single point]"}
{"molecule": "COc1cc(CN2CCN(C(=O)COc3ccccc3)CC2)cc(OC)c1OC", "AC50": "5.01 µM [rising, single point]"}
{"molecule": "CCCC(C)C(=O)NC1CCSC1=O", "note": "(configuration not stated)", "AC50": "1 µM [falling, partial curve, poor fit]"}
{"molecule": "Oc1cccc2cccnc12", "AC50": "3.16 µM [falling, partial curve, poor fit]"}
{"molecule": "CCC(=NCc1ccc2c(c1)OCO2)c1c(O)n(C2CCCCC2)c(=O)[nH]c1=O", "AC50": "1.26 µM [rising, partial curve]"}
{"molecule": "Cc1ccccc1NC1=NCCCS1", "AC50": "3.98 µM [falling, single point]"}
{"molecule": "CC1N(P(=O)(c2ccccc2)c2ccccc2)CC(O)(c2ccccc2)CC12CC2", "note": "(configuration not stated)", "AC50": "25.1 µM [rising, single point]"}
{"molecule": "CN(C)C(=O)Oc1ccc(C(=O)c2ccccc2)cc1", "AC50": "0.794 µM [rising, single point]"}
{"molecule": "CN(CC1COc2ccccc2O1)c1nc(-c2cccnc2)nc2ccccc12", "note": "(configuration not stated)", "AC50": "12.6 µM [falling, partial curve]"}
{"molecule": "O=C(CCCOc1ccc(Cl)cc1Cl)N1CCC2(CC1)OCCO2", "AC50": "12.6 µM [rising, single point]"}
{"molecule": "CC(C)CC12CN3CCN(CC(C3)/C1=N/O)C2", "AC50": "0.631 µM [falling, full curve, poor fit]"}
{"molecule": "O=C(NCC(c1cccnc1)N1CCN(c2ccc(F)cc2)CC1)Oc1ccccc1", "note": "(configuration not stated)", "AC50": "0.01 µM [falling, partial curve, poor fit]"}
{"molecule": "CCCCCCCCCc1ccc(O)cc1", "AC50": "10 µM [rising, partial curve, poor fit]"}
{"molecule": "CCC(=NCc1ccco1)c1c(O)[nH]c(=O)[nH]c1=O", "AC50": "15.8 µM [rising, single point]"}
